Reference: PubChem BioAssay AID504467 (National Center for Advancing Translational Sciences (NCATS), 2011)
About 7,700 (2.3%) of roughly 330,000 compounds were called active. The shares of active, inactive and inconclusive entries below differ from those in the screen. Calls follow the shape of the dose curve; as a rule, active = well fitted inhibition curve with a large enough effect; inconclusive = small, poorly fitted or top-dose-only effect, or effect the other way; inactive = flat fitted curve, though single readings scatter. Where the call is inconclusive, the potency comes from a doubtful curve fit.

Experiment: qHTS screen for small molecules that inhibit ELG1-dependent DNA repair in human embryonic kidney (HEK293T) cells expressing luciferase-tagged ELG1; also: nearly all actives have a fitted effect of over 55% in size
Conditions: HEK293T ELG1-luciferase reporter, luminescence, 16 h, DNA damage induced by 5-fluorouridine; activity change, negative = inhibition: at 46.1 µM (top of the series)
How it was run: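 In this reporter screen, reduction of luminescence relative to DMSO vehicle indicated activity. Compounds and 5-fluorouridine were added together to 2,000 cells per well, incubated for 16 hr at 37 °C, then developed with ONE-Glo.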
% is scaled to controls: 0 for no effect and ±100 for the full control effect; potency is read from the fitted curve at half-maximal effect.

SMILES	Potency	activity change, negative = inhibition
O=C(O)c1cccc(-n2cccc2/C=C\[N+](=O)[O-])c1	inconclusive: 16.4 µM [activator, partial curve, poor fit]	
c1csc(C2=NNC(=NC3CCCCC3)SC2)c1	inconclusive: 5.17 µM [activator, partial curve]	
Clc1cccc(NCc2cn3cccnc3n2)c1	inconclusive: 20.6 µM [activator, partial curve]	
CC(C)(C)c1csc(NC(=O)CCc2ccccc2)n1	inconclusive: 16.4 µM [activator, single point]	
COc1ccc(C#Cc2c(C=O)n(C)c3ccccc23)cc1		inactive: 25%
O=C(OCC(=O)N(Cc1ccccc1)Cc1ccccc1)c1ccccc1NCCO		inactive: -27.2%
COc1ccc(C2=CC(c3c(C)nn(-c4ccccc4)c3Cl)n3nnnc3N2)cc1OC (stereo not drawn)	inconclusive: 23.1 µM [inhibitor, single point]	
Cc1csc(=N)n1-c1ccc(Cl)cc1	inconclusive: 11.6 µM [activator, partial curve]	
Cc1ccc(NC(=O)c2ccc(NC(=O)C3CCCCC3C(=O)O)cc2)cc1 (stereo not drawn)	inconclusive: 23.1 µM [activator, single point]	
COc1ccc(NC(=O)CSCc2ccccc2C)cc1	inconclusive: 23.1 µM [activator, partial curve]	
COc1ccc(NC(=O)c2sc3nc(C)nc(N4CCOCC4)c3c2C)c(OC)c1		inactive: 7.84%
O=C(Cc1c[nH]c2ccccc12)NCc1ccc(Cl)cc1	inconclusive: 13 µM [activator, partial curve, poor fit]	
CCOC(=O)c1cnc2c(ccc3ccccc32)c1N	inconclusive: 2.59 µM [activator, full curve]	
CCc1ccc(-c2nnn(Cc3nc4ccccc4s3)n2)cc1	inconclusive: 25.9 µM [activator, single point]	
COc1ccc(NC(=O)c2c(C)noc2-c2snnc2C)cc1	inconclusive: 5.8 µM [inhibitor, full curve]	
O=C(CCc1ccccc1)NCCc1cccs1	inconclusive: 29.1 µM [activator, single point]	
N=c1n(CC(=O)c2ccc(Br)s2)c2ccccc2n1Cc1ccccc1	inconclusive: 20.6 µM [inhibitor, partial curve]	
COc1ccc(OC)c(C2C(C(=O)Nc3cccnc3)=C(C)NC3=C2C(=O)CCC3)c1 (stereo not drawn)	inconclusive: 23.1 µM [activator, single point]	
COc1ccc(CCN2CC(C(=O)N(C)CC(=O)Nc3ccc(Cl)c(C(F)(F)F)c3)CC2=O)cc1OC (stereo not drawn)	inconclusive: 23.1 µM [inhibitor, partial curve]	
CCCN1Cc2cccc(C(=O)NCCCOC(C)C)c2C1=O		inactive: 10.1%
CC(C)C(=O)NC(c1cccc([N+](=O)[O-])c1)c1c(O)ccc2ccccc12 (stereo not drawn)		inactive: 5.64%
COC(=O)[C@]1(Cc2ccccc2)N[C@H](CN(C)C(=O)Nc2ccc(Cl)cc2)[C@@H]2C(=O)N(C)C(=O)[C@@H]21		inactive: -2.04%
Cc1cc(C)nc(N2CCC(C(=O)Nc3ccc4c(c3)OCO4)CC2)n1	inconclusive: 35.5 µM [inhibitor, single point]	
CCOC(=O)c1ccc(NC(=O)Nc2ccc(F)cc2)cc1	inconclusive: 29.1 µM [activator, single point]	
CCNC(=S)N/N=C/c1cccs1		inactive: -3.75%

2 entries drawn at random from the list so far, as already listed:
SMILES	Potency	activity change, negative = inhibition
COc1ccc(CCN2CC(C(=O)N(C)CC(=O)Nc3ccc(Cl)c(C(F)(F)F)c3)CC2=O)cc1OC (stereo not drawn)	inconclusive: 23.1 µM [inhibitor, partial curve]	
COc1ccc(NC(=O)c2sc3nc(C)nc(N4CCOCC4)c3c2C)c(OC)c1		inactive: 7.84%

Following part

SMILES	Potency	activity change, negative = inhibition
CCOC(=O)c1oc2ccccc2c1CN1CCN(C(=O)c2ccccc2)CC1	inconclusive: 6.51 µM [inhibitor, partial curve]	
Cc1ccc(-n2[nH]c(C)c(C=NCc3ccncc3)c2=O)cc1	inconclusive: 16.4 µM [activator, partial curve]	
[N-]=[N+]=NC1CC(CO)OC1n1ccc(=O)[nH]c1=O (stereo not drawn)		inactive: 15.9%
Cc1cc(C)c(-n2nnnc2SCC(=O)c2cccs2)c(C)c1	inconclusive: 20.6 µM [inhibitor, single point]	
COc1ccccc1OCC(=O)Nc1ncc(C)s1	inconclusive: 3.66 µM [activator, partial curve]	
Cc1cccc(C)c1NC(=O)CSc1nnc(C)n1CC1CCCO1 (stereo not drawn)		inactive: 10.2%
CCCCCCN[C@H]1CCC2C3CC=C4C[C@@H](O)CC[C@]4(C)C3CC[C@@]21C (stereo partly drawn)		inactive: 0.606%
O=C(Nc1ccc(F)c(F)c1)c1cc(S(=O)(=O)N2CCN(c3ccccn3)CC2)ccc1F	active: 16.4 µM	
Cc1ccc2nc(NC(=O)CCCc3nc4ccccc4s3)sc2c1	inconclusive: 10.3 µM [activator, partial curve]	
CC1=CC(C)C2(COC(c3ccc[n+](C)c3)OC2)C(C)C1 (stereo not drawn)	active: 6.51 µM	
O=C(CNc1cc(S(=O)(=O)N2CCCC2)ccc1OCC(F)(F)F)Nc1cc(Cl)cc(Cl)c1		inactive: 1.39%
CCN(C[C@H]1N[C@@](Cc2ccccc2)(C(=O)OC)[C@H]2C(=O)N(Cc3ccccc3)C(=O)[C@@H]12)C(=O)Nc1ccc(Cl)cc1		inactive: 3.32%
COc1ccc(NC(=O)CC2CCCC2)cc1OC	inconclusive: 18.3 µM [activator, single point]	
Cc1cc2c(cc1C)CN(c1ccccc1)C2	inconclusive: 1.64 µM [activator, full curve]	
O=C1CCCC(O)=C1Sc1ccccc1C(=O)O		inactive: -27.8%
COc1ccc(N2CCN(CC(=O)Nc3nc4c(s3)CC(C)CC4)CC2)cc1 (stereo not drawn)	inconclusive: 16.4 µM [inhibitor, partial curve]	
O=C(COc1ccc2ccccc2c1)Nc1ccc(S(=O)(=O)N2CCCCCC2)cc1	inconclusive: 16.4 µM [inhibitor, partial curve, poor fit]	
Cc1nc2ccccc2n1CC(O)COCC1CC=CCC1 (stereo not drawn)		inactive: -4.69%
COc1ccc(S(=O)(=O)N/N=C(/C)c2ccc(Cl)cc2)cc1		inactive: 0.5%
COc1cc(C2CC(=O)c3cnc(N4CCN(Cc5ccccc5)CC4)nc3C2)cc(OC)c1OC (stereo not drawn)	active: 3.26 µM	
Cc1cccc(OCCn2nc(C(=O)O)c3ccccc3c2=O)c1	inconclusive: 18.4 µM [inhibitor, single point]	
CCCNC(=O)c1ccc2c(c1)ncn2-c1cc(C)cc(C)c1	inconclusive: 6.51 µM [inhibitor, single point]	
N#Cc1ccc(OCc2nnc(SCC(=O)c3ccccc3)n2-c2ccccc2)cc1	active: 14.6 µM	
O=C(O)CCC(=O)Nc1ccc(C(=O)OC2CCCCC2)cc1	inconclusive: 20.6 µM [activator, partial curve, poor fit]	
CCCc1nc2oc(C(=O)OCC)c(N)c2c2c1COC(C)(C)C2	inconclusive: 29.1 µM [inhibitor, partial curve, poor fit]	

3 successive entries already listed, quoted:
SMILES	Potency	activity change, negative = inhibition
COc1ccc(S(=O)(=O)N/N=C(/C)c2ccc(Cl)cc2)cc1		inactive: 0.5%
COc1cc(C2CC(=O)c3cnc(N4CCN(Cc5ccccc5)CC4)nc3C2)cc(OC)c1OC (stereo not drawn)	active: 3.26 µM	
Cc1cccc(OCCn2nc(C(=O)O)c3ccccc3c2=O)c1	inconclusive: 18.4 µM [inhibitor, single point]	

Further compounds

SMILES	Potency	activity change, negative = inhibition
O=C(O)c1cc(NC(=O)c2ccc(Cl)c([N+](=O)[O-])c2)cc(C(=O)O)c1		inactive: -7.7%
CC(=O)c1ccc(NC(=O)c2sc3nc4n(c(=O)c3c2C)CCCCC4)cc1	inconclusive: 2.59 µM [activator, partial curve]	
CSc1ccc(/C=C(\NC(=O)c2ccc(C)cc2)C(=O)Nc2cccc(C)c2)cc1	inconclusive: 32.6 µM [activator, partial curve, poor fit]	
CC(C)CNC(=O)C(=O)Nc1cc2c3c(c1)CCC(=O)N3CCC2	inconclusive: 16.4 µM [activator, partial curve]	
C=C1C(C(=O)Nc2ccc(OCC)cc2)C1C(=O)Nc1ccc(OCC)cc1 (stereo not drawn)	inconclusive: 23.1 µM [activator, single point]	
Cc1ccc(NC(=O)C2CC(=O)Nc3nncn32)cc1 (stereo not drawn)		inactive: 6.35%
COc1ccc(/C=N/Nc2nc(=O)[nH]nc2C)cc1OC		inactive: -6.65%
CC(C)c1ccc(OCC(=O)N(c2ccccn2)C2CCCCC2)cc1		inactive: -7.11%
COc1ccc(N2CCN(c3ncccc3C#N)CC2)cc1		inactive: 2.3%
N#CC1(NC(=O)COC(=O)CNC(=O)c2sc3ccccc3c2Cl)CCCCC1		inactive: 11.8%
O=C(Nc1ccc2c(c1)OCO2)c1cnn2cccnc12	inconclusive: 13 µM [activator, partial curve]	
CCc1ccccc1NC(=O)CNC(=O)CCc1nc2sc3c(c2c(=O)[nH]1)CCCC3	inconclusive: 5.8 µM [activator, partial curve]	
O=S(=O)(c1c(Cl)cc(Br)cc1Cl)N1CCN(C(=S)NC2CC2)CC1	active: 4.11 µM	
COc1ccc(NC(=S)N2CCN(C(c3ccccc3)c3ccccc3)CC2)c(OC)c1	inconclusive: 20.6 µM [inhibitor, single point]	
CC(NC(N)=O)C(=O)Nc1ccc(Cl)c(S(=O)(=O)Nc2ccc(Cl)cc2)c1 (stereo not drawn)		inactive: -1.4%
CCOC(=O)c1cnc(-n2nc(C)cc2C)nc1Nc1ccc(C)cc1	inconclusive: 6.51 µM [inhibitor, single point]	
N#Cc1ccccc1CSc1nnc(Cc2ccccc2)o1	inconclusive: 25.9 µM [activator, single point]	
O=C(COC(=O)c1ccccc1OC(F)F)Nc1ccc2[nH]c(=O)[nH]c2c1		inactive: 2.82%
Cc1ccc(Cl)c(NC(=O)COC(=O)CNS(=O)(=O)/C=C/c2ccccc2)c1Cl	inconclusive: 18.4 µM [activator, partial curve, poor fit]	
COc1ccc(-c2nnc3ccc(SCC(N)=O)nn23)cc1OC	inconclusive: 0.92 µM [inhibitor, full curve, poor fit]	
COc1ccc(OC)c(NC(=O)c2cc3oc4ccccc4c3cc2O)c1		inactive: -7%
CC(C)Cn1c(SCC(=O)N2CCOCC2)nc2ccccc2c1=O		inactive: -2.33%
CC(=O)Nc1ccccc1C(=O)C(=O)Nc1cccc(C(=O)NC2CC2)c1	inconclusive: 20.6 µM [activator, partial curve]	
